Assay results published in publication PMC11116469.
No constants are given. Whether binding was seen depends on the method and setting. Some binding calls cover weakened binding; strength is not graded here.

Sequences of proteins named here, by UniProt entry; tags and fusion partners are left off.
UniProt Q01844: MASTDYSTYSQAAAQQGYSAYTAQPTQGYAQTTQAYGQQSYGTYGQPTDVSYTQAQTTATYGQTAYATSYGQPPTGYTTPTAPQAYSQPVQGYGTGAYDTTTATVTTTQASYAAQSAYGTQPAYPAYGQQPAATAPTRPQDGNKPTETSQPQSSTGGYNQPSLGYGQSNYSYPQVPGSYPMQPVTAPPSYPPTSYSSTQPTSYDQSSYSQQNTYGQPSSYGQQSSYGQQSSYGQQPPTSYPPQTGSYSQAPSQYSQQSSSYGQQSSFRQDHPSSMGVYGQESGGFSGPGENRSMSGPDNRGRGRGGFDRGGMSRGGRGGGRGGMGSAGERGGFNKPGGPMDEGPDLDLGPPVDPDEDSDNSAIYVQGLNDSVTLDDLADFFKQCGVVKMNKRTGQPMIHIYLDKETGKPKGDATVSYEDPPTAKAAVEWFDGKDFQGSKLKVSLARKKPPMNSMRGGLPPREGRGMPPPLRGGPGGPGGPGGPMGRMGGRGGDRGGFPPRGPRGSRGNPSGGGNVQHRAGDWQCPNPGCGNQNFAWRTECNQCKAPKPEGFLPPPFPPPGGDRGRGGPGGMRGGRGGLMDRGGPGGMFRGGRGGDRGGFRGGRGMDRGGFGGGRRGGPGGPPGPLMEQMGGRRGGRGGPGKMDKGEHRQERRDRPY

Target: EWSR1-SNAP (Ewing Sarcoma breakpoint region 1/EWS RNA binding protein 1, SNAP-tagged) (UniProt Q01844)
Experiment: dynamic light scattering (DLS); sub-saturated solutions of one protein; 100 mM KCl and 100 mM KGlu buffers (20 mM Tris pH 7.4), 25 °C; correlation coefficients, size distributions and derived count rates; detects mesoscale clusters; both purified

binding: binds
Substance: EWSR1-SNAP (Ewing Sarcoma breakpoint region 1/EWS RNA binding protein 1, SNAP-tagged) (from UniProt Q01844 1-656)
